According to article PMC3989599:
Results are given in words; binding and its absence hold for the method and conditions named. For some assays here: In cells and extracts the contact can be indirect. Some results given as binding are weak or reduced against the parent protein; the word gives no strength.

Protein sequences, listed by entry. Tags and fused reporters are not part of them.
UniProt Q7KLW9: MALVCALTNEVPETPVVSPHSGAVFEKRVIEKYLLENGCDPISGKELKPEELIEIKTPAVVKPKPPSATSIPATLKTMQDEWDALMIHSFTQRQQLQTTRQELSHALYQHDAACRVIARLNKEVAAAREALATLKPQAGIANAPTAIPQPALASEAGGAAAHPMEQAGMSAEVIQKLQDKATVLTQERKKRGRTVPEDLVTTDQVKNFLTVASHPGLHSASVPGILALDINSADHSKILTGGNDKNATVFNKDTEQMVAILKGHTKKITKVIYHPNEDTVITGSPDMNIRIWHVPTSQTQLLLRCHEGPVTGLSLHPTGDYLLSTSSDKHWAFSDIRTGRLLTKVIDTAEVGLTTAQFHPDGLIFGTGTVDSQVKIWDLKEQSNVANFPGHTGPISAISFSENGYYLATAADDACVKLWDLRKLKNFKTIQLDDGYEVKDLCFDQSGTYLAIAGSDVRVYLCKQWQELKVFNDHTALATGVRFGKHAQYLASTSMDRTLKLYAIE

What was measured:
[1] = target: Prp19 (CG5519) (Drosophila melanogaster (endogenous in embryos and ovaries)) (UniProt Q7KLW9); assay: SEC; 2 mg protein extract of 0-3 hr control (FRT42B) embryos on Superose 6 10/300 GL in NB2 buffer (150 mM NaCl, 50 mM Tris-HCl pH 7,5, 2 mM EDTA, 0,01% NP-40, 1 mM DTT); fractions analysed by Western blot
[2] = target: Prp19 (CG5519) (Drosophila melanogaster (endogenous in embryos and ovaries)) (UniProt Q7KLW9); assay: co-IP; nuclear protein extracts of 0-3 hr wild-type (Oregon-R) embryos; 1 mg extract with rabbit anti-Prp19 (pre-immune serum as control) in HNEB2 buffer (100 mM NaCl, 2,5 mM MgCl2, 10 mM Tris-HCl pH 7,5, 0,5% Triton X-100), 1 hr at 4°C; Dynabeads Protein G; Western blot

binding [1]: binds
binding [2]: binds
B1: Fandango (CG6197) (protein, UniProt A1Z9G2 1-883)
chain: MVTKTIKSLNLEINFEVEDVPYEEEILRNAYSVKHWLRYIDHKAKAPNNGVNMVYERALKELPGSYKIWHNYLRTRRKQVRGKIPTDPMYEEVNSAFERALVFMHKMPRIWMDYGAFMTSQCKITRTRHVFDRALRALPITQHGRIWPLYLQFVRRFEMPETALRVYRRYLKLFPEDTEEYVDYLQEADRLDEAAQQLAHIVDNEHFVSKHGKSNHQLWNELCDLISKNPHKVHSLNVDAIIRGGLRRYTDQLGHLWNSLADYYVRSGLFDRARDIYEEAIQTVTTVRDFTQVFDEYAQFEELSLNRRMEQVAANEAATEEDDIDVELRLSRFEYLMERRLLLLNSVLLRQNPHNVHEWHKRVTLYEDKPAEIISTYTEAVQTVQPKQAVGKLHTLWVEFAKFYEANGQVEDARVVFERGTEVEYVKVEDLAAVWCEWAEMELRQQQFEAALKLMQRATAMPKRKIAYYDDTETVQARLHRSLKVWSMYADLEESFGTFKTCKAVYERIIDLKICTPQIIINYGMFLEEHNYFEEAYRAYEKGISLFKWPNVYDIWNSYLTKFLERYGGTKLERARDLFEQCLDQCPPEHAKYFYLLYAKLEEEHGLARHAMSVYDRATSAVKEDEMFDMYNIFIKKAAEIYGLPRTREIYEKAIESLPEQNMRHMCVKFAELETKLGEVDRARAIYAHCSQVCDPRITADFWQTWKEFEVRHGNEDTMREMLRIKRSVQATYNTQVNMMAAQFLSTNNGAAADAGAGAGPDAMRLLEEKARQAAAESKQKPIEKAASNIMFVRGETQGGAKDKKDTVVNPDEIDIGDSDEDDEEEDDDEENEMTNENQASAAVTKTDEEGLVMKKLRFEQKAIPAKVFGSLKPSNQGDSDGE
